One test deals with T1, CHMP4B-APEX2-mCitrine (UniProt Q9H444).
T1 sequence: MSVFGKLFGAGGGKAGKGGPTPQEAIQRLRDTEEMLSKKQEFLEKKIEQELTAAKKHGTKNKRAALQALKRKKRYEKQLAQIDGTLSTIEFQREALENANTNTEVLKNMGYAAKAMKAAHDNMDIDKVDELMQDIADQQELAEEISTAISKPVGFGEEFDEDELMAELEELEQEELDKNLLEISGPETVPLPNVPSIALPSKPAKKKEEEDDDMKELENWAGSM
Nature of the test: proximity labelling; APEX2 fusions of LEMD2 or CHMP4B in RPE1 cells after DOX induction of CHMP7^WT (12 h), CHMP7^NLS (6 h) or CHMP7^NES* (3, 6, 9 h); 500 μM biotin-phenol 3 h, 2 mM H2O2 2 min; RIPA lysis, streptavidin magnetic beads, label-free quantitative LC-MS/MS; compared with parental cells without APEX2 fusions.

Protein sequences, listed by entry. Tags and fused reporters are not part of them.
UniProt Q8NC56: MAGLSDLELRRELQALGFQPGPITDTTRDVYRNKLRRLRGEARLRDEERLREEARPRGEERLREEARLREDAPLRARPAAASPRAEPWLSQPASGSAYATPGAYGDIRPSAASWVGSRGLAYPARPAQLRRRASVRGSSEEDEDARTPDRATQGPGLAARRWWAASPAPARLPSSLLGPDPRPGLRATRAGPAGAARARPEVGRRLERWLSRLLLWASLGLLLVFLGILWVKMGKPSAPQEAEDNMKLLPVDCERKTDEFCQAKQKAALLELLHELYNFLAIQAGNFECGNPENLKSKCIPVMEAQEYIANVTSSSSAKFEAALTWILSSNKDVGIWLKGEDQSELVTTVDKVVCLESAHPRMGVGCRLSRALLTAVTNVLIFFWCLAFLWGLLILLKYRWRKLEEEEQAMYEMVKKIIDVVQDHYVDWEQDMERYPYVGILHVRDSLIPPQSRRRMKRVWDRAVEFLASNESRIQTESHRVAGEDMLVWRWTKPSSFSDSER
UniProt Q02880: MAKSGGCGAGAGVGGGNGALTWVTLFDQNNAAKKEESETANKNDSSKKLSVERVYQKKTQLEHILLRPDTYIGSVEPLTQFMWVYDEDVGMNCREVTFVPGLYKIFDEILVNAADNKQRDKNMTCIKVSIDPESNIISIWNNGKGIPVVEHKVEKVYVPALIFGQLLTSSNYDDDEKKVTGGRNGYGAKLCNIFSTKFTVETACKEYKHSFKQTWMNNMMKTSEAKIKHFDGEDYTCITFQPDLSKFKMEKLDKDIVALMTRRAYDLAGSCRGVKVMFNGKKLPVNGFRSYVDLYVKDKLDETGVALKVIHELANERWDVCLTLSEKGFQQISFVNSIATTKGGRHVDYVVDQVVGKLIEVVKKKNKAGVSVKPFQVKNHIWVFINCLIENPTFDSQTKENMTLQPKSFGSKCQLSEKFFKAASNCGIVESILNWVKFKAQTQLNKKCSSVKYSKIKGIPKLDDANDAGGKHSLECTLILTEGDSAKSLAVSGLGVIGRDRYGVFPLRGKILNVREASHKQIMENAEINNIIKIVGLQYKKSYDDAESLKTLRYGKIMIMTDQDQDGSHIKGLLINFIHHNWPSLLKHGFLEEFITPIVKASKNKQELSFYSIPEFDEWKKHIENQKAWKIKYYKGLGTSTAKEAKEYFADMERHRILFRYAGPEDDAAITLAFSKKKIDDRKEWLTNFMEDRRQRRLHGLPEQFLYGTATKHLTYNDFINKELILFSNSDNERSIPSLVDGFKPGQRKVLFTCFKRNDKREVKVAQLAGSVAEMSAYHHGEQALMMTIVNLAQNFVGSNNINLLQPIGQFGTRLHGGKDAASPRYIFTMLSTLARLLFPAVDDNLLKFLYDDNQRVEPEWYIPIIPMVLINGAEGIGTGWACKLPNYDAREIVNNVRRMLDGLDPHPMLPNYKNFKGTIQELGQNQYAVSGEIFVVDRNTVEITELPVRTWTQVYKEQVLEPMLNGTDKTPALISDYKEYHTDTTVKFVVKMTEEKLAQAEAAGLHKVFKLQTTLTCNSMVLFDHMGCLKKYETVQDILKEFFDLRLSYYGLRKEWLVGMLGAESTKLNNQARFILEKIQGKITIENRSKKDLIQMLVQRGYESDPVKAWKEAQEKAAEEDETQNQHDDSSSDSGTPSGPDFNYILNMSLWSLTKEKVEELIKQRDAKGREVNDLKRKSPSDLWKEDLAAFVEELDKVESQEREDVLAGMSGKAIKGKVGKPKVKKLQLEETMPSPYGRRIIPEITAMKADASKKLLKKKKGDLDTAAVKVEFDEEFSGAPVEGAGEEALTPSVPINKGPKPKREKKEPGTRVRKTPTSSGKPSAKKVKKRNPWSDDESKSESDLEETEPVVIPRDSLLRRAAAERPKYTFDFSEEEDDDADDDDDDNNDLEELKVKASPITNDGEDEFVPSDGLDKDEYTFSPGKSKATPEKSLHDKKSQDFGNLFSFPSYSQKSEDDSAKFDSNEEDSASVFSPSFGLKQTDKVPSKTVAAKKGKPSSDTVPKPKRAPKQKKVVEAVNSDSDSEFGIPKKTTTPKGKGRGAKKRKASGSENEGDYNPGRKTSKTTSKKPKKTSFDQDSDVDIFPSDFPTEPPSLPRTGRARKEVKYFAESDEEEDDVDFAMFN
UniProt O95573: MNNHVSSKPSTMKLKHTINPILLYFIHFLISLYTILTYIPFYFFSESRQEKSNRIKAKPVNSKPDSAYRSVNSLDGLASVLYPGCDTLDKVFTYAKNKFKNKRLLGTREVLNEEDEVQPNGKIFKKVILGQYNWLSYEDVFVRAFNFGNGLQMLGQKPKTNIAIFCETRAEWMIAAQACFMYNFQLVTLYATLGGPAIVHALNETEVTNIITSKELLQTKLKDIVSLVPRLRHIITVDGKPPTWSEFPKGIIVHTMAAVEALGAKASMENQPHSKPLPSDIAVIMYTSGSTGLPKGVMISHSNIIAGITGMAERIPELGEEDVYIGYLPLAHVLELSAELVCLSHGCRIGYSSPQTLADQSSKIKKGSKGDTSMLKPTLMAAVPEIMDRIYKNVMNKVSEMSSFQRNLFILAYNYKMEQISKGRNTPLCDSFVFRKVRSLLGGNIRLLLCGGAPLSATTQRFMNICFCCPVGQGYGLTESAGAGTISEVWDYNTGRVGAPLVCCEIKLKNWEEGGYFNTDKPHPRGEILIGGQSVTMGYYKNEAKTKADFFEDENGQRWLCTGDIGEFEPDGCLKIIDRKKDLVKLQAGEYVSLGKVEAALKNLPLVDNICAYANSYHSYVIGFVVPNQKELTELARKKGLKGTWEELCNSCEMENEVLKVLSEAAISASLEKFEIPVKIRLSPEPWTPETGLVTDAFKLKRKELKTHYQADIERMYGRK
UniProt Q14974: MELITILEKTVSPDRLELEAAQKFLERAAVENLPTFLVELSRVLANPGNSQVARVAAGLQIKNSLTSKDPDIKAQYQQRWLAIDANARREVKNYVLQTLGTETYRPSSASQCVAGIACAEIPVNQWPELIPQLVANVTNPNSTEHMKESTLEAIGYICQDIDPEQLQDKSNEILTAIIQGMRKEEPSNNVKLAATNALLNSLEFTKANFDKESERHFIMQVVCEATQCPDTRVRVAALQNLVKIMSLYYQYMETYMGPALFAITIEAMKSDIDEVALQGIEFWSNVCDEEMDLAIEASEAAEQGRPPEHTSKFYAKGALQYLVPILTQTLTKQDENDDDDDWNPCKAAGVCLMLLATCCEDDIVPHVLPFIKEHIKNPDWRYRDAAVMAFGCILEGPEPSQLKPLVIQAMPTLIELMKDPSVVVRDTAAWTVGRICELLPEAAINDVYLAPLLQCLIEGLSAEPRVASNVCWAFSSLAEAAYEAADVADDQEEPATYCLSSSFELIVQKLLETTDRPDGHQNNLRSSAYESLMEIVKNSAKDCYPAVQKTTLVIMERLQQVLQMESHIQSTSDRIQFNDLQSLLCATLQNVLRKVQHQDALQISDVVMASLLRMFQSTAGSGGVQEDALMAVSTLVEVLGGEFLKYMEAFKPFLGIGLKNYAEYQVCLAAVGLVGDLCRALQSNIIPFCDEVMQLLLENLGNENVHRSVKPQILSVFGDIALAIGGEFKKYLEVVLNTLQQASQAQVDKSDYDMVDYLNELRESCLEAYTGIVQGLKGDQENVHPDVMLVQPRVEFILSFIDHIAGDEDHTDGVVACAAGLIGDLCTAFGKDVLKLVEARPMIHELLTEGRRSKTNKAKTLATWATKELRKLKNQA

The target of another test is LEMD2-APEX2-mCitrine (UniProt Q8NC56). The test is described as above.

Results are given in words; binding and its absence hold for the method and conditions named. Binding seen in cells or lysates may run through a third protein. Here binding means that the protein was enriched with, or labelled near, the bait; the list need not be complete. For some of these results: Where a sequence is shown, tags or fusion partners need not be part of it.

Take “CHMP7^NES* (CHMP7 mutated in its nuclear export signal, doxycycline-inducible) (from UniProt Q8WUX9)”: the binding result with CHMP4B-APEX2-mCitrine is listed as “binds”.
Regarding “Topoisomerase 2B (Top2B) (from UniProt Q02880 1-1626)”, the binding entry with LEMD2-APEX2-mCitrine and with CHMP4B-APEX2-mCitrine was “binds” each time.
In the case of “acyl-CoA synthetase 3 (ACSL3) (from UniProt O95573 1-720)”, the binding result with LEMD2-APEX2-mCitrine and with CHMP4B-APEX2-mCitrine was “binds” in each case.
As for “KPNB1 (endogenous) (from UniProt Q14974 1-876)”, the binding entry in the test with LEMD2-APEX2-mCitrine is on record as “binds”.
As to “Nesprin-1 (SYNE1) (from UniProt Q8NF91 1-8797)”, the binding result in the test with LEMD2-APEX2-mCitrine and in the test with CHMP4B-APEX2-mCitrine was “binds” throughout.

B1: Vaccinia-related kinase 1 (VRK1) (protein, UniProt Q99986 1-396)
chain: MPRVKAAQAGRQSSAKRHLAEQFAVGEIITDMAKKEWKVGLPIGQGGFGCIYLADMNSSESVGSDAPCVVKVEPSDNGPLFTELKFYQRAAKPEQIQKWIRTRKLKYLGVPKYWGSGLHDKNGKSYRFMIMDRFGSDLQKIYEANAKRFSRKTVLQLSLRILDILEYIHEHEYVHGDIKASNLLLNYKNPDQVYLVDYGLAYRYCPEGVHKEYKEDPKRCHDGTIEFTSIDAHNGVAPSRRGDLEILGYCMIQWLTGHLPWEDNLKDPKYVRDSKIRYRENIASLMDKCFPEKNKPGEIAKYMETVKLLDYTEKPLYENLRDILLQGLKAIGSKDDGKLDLSVVENGGLKAKTITKKRKKEIEESKEPGVEDTEWSNTQTEEAIQTRSRTRKRVQK
On to B1, for which the binding result in the test with LEMD2-APEX2-mCitrine and with CHMP4B-APEX2-mCitrine was “binds” in each case.

B2: STAMBP/AMSH (protein, UniProt O95630 1-424)
chain: MSDHGDVSLPPEDRVRALSQLGSAVEVNEDIPPRRYFRSGVEIIRMASIYSEEGNIEHAFILYNKYITLFIEKLPKHRDYKSAVIPEKKDTVKKLKEIAFPKAEELKAELLKRYTKEYTEYNEEKKKEAEELARNMAIQQELEKEKQRVAQQKQQQLEQEQFHAFEEMIRNQELEKERLKIVQEFGKVDPGLGGPLVPDLEKPSLDVFPTLTVSSIQPSDCHTTVRPAKPPVVDRSLKPGALSNSESIPTIDGLRHVVVPGRLCPQFLQLASANTARGVETCGILCGKLMRNEFTITHVLIPKQSAGSDYCNTENEEELFLIQDQQGLITLGWIHTHPTQTAFLSSVDLHTHCSYQMMLPESVAIVCSPKFQETGFFKLTDHGLEEISSCRQKGFHPHSKDPPLFCSCSHVTVVDRAVTITDLR
For B2, the binding entry with LEMD2-APEX2-mCitrine is listed as “binds”.

B3: CC2D1B (protein, UniProt Q5T0F9 1-858)
chain: MMPGPRPRKGPQARGQGVAAAKQMGLFMEFGPEDMLLGMDEAEDDEDLEAELLALTGEAQTTGKKPAPKGQAPLPMAHIEKLAADCMRDVEEEEEEEGLEEDAELLTELQEVLGVDEETEPLDGDEVADPGGSEEENGLEDTEPPVQTAVLTASAPAAQAGASQGLHALLEERIHNYREAAASAKEAGEAAKARRCERGLKTLESQLASVRRGRKINEDEIPPPVALGKRPLAPQEPANRSPETDPPAPPALESDNPSQPETSLPGISAQPVSDLDPDPRALLSSRQREYKVAALSAKRAGELDRARELMRIGKRFGAVLEALEKGQPVDLSAMPPAPEDLKPQQASQAPTAPSVIPPAVERVQPVMAPDVPATPVAPTESQTVLDALQQRLNKYREAGIQARSGGDERKARMHERIAKQYQDAIRAHRAGRKVNFAELPVPPGFPPIPGLESTMGVEEDAVAATLAAAEKLASAEDSAPADKDEDEPPGHLQGEPPAQAPVAKKPARPTVPSSQRLPEPRASSSKESPSPSVREQLALLEARKLQYQRAALQAKRSQDLEQAKAYLRVAKWLEAQIIQARSGRPVDLSKVPSPLTDEEGDFILIHHEDLRLSQKAEEVYAQLQKMLLEQQEKCLLFSKQFMHQGNVAETTRFEKLAQDRKKQLEILQLAQAQGLDPPTHHFELKTFQTVRIFSELNSTEMHLIIVRGMNLPAPPGVTPDDLDAFVRFEFHYPNSDQAQKSKTAVVKNTNSPEFDQLFKLNINRNHRGFKRVIQSKGIKFEIFHKGSFFRSDKLVGTAHLKLERLENECEIREIVEVLDGRKPTGGKLEVKVRLREPLSGQDVQMVTENWLVLEPRGL
In the case of B3, the binding entry with LEMD2-APEX2-mCitrine and with CHMP4B-APEX2-mCitrine was “binds” throughout.

B4: Calpain 7 (CAPN7) (protein, UniProt Q9Y6W3 1-813)
chain: MDATALERDAVQFARLAVQRDHEGRYSEAVFYYKEAAQALIYAEMAGSSLENIQEKITEYLERVQALHSAVQSKSADPLKSKHQLDLERAHFLVTQAFDEDEKENVEDAIELYTEAVDLCLKTSYETADKVLQNKLKQLARQALDRAEALSEPLTKPVGKISSTSVKPKPPPVRAHFPLGANPFLERPQSFISPQSCDAQGQRYTAEEIEVLRTTSKINGIEYVPFMNVDLRERFAYPMPFCDRWGKLPLSPKQKTTFSKWVRPEDLTNNPTMIYTVSSFSIKQTIVSDCSFVASLAISAAYERRFNKKLITGIIYPQNKDGEPEYNPCGKYMVKLHLNGVPRKVIIDDQLPVDHKGELLCSYSNNKSELWVSLIEKAYMKVMGGYDFPGSNSNIDLHALTGWIPERIAMHSDSQTFSKDNSFRMLYQRFHKGDVLITASTGMMTEAEGEKWGLVPTHAYAVLDIREFKGLRFIQLKNPWSHLRWKGRYSENDVKNWTPELQKYLNFDPRTAQKIDNGIFWISWDDLCQYYDVIYLSWNPGLFKESTCIHSTWDAKQGPVKDAYSLANNPQYKLEVQCPQGGAAVWVLLSRHITDKDDFANNREFITMVVYKTDGKKVYYPADPPPYIDGIRINSPHYLTKIKLTTPGTHTFTLVVSQYEKQNTIHYTVRVYSACSFTFSKIPSPYTLSKRINGKWSGQSAGGCGNFQETHKNNPIYQFHIEKTGPLLIELRGPRQYSVGFEVVTVSTLGDPGPHGFLRKSSGDYRCGFCYLELENIPSGIFNIIPSTFLPKQEGPFFLDFNSIIPIKITQLQ
For B4, the binding entry with LEMD2-APEX2-mCitrine and with CHMP4B-APEX2-mCitrine was “binds” each time.

B5: Spastin (protein, UniProt Q9UBP0 1-616)
chain: MNSPGGRGKKKGSGGASNPVPPRPPPPCLAPAPPAAGPAPPPESPHKRNLYYFSYPLFVGFALLRLVAFHLGLLFVWLCQRFSRALMAAKRSSGAAPAPASASAPAPVPGGEAERVRVFHKQAFEYISIALRIDEDEKAGQKEQAVEWYKKGIEELEKGIAVIVTGQGEQCERARRLQAKMMTNLVMAKDRLQLLEKMQPVLPFSKSQTDVYNDSTNLACRNGHLQSESGAVPKRKDPLTHTSNSLPRSKTVMKTGSAGLSGHHRAPSYSGLSMVSGVKQGSGPAPTTHKGTPKTNRTNKPSTPTTATRKKKDLKNFRNVDSNLANLIMNEIVDNGTAVKFDDIAGQDLAKQALQEIVILPSLRPELFTGLRAPARGLLLFGPPGNGKTMLAKAVAAESNATFFNISAASLTSKYVGEGEKLVRALFAVARELQPSIIFIDEVDSLLCERREGEHDASRRLKTEFLIEFDGVQSAGDDRVLVMGATNRPQELDEAVLRRFIKRVYVSLPNEETRLLLLKNLLCKQGSPLTQKELAQLARMTDGYSGSDLTALAKDAALGPIRELKPEQVKNMSASEMRNIRLSDFTESLKKIKRSVSPQTLEAYIRWNKDFGDTTV
With B5, the binding entry with LEMD2-APEX2-mCitrine is on record as “binds”.

B6: CHMP7^WT (doxycycline-inducible wildtype CHMP7 allele) (protein, UniProt Q8WUX9 1-453)
chain: MWSPEREAEAPAGGDPAGLLPPEWEEDEERMSFLFSAFKRSREVNSTDWDSKMGFWAPLVLSHSRRQGVVRLRLRDLQEAFQRKGSVPLGLATVLQDLLRRGELQRESDFMASVDSSWISWGVGVFLLKPLKWTLSNMLGDNKVPAEEVLVAVELLKEKAEEVYRLYQNSPLSSHPVVALSELSTLCANSCPDERTFYLVLLQLQKEKRVTVLEQNGEKIVKFARGPRAKVSPVNDVDVGVYQLMQSEQLLSRKVESLSQEAERCKEEARRACRAGKKQLALRSLKAKQRTEKRIEALHAKLDTVQGILDRIYASQTDQMVFNAYQAGVGALKLSMKDVTVEKAESLVDQIQELCDTQDEVSQTLAGGVTNGLDFDSEELEKELDILLQDTTKEPLDLPDNPRNRHFTNSVPNPRISDAELEAELEKLSLSEGGLVPSSKSPKRQLEPTLKPL
Take B6: in the test with CHMP4B-APEX2-mCitrine, the binding entry was “binds”.

B7: USP8 (protein, UniProt P40818 1-1118)
chain: MPAVASVPKELYLSSSLKDLNKKTEVKPEKISTKSYVHSALKIFKTAEECRLDRDEERAYVLYMKYVTVYNLIKKRPDFKQQQDYFHSILGPGNIKKAVEEAERLSESLKLRYEEAEVRKKLEEKDRQEEAQRLQQKRQETGREDGGTLAKGSLENVLDSKDKTQKSNGEKNEKCETKEKGAITAKELYTMMTDKNISLIIMDARRMQDYQDSCILHSLSVPEEAISPGVTASWIEAHLPDDSKDTWKKRGNVEYVVLLDWFSSAKDLQIGTTLRSLKDALFKWESKTVLRNEPLVLEGGYENWLLCYPQYTTNAKVTPPPRRQNEEVSISLDFTYPSLEESIPSKPAAQTPPASIEVDENIELISGQNERMGPLNISTPVEPVAASKSDVSPIIQPVPSIKNVPQIDRTKKPAVKLPEEHRIKSESTNHEQQSPQSGKVIPDRSTKPVVFSPTLMLTDEEKARIHAETALLMEKNKQEKELRERQQEEQKEKLRKEEQEQKAKKKQEAEENEITEKQQKAKEEMEKKESEQAKKEDKETSAKRGKEITGVKRQSKSEHETSDAKKSVEDRGKRCPTPEIQKKSTGDVPHTSVTGDSGSGKPFKIKGQPESGILRTGTFREDTDDTERNKAQREPLTRARSEEMGRIVPGLPSGWAKFLDPITGTFRYYHSPTNTVHMYPPEMAPSSAPPSTPPTHKAKPQIPAERDREPSKLKRSYSSPDITQAIQEEEKRKPTVTPTVNRENKPTCYPKAEISRLSASQIRNLNPVFGGSGPALTGLRNLGNTCYMNSILQCLCNAPHLADYFNRNCYQDDINRSNLLGHKGEVAEEFGIIMKALWTGQYRYISPKDFKITIGKINDQFAGYSQQDSQELLLFLMDGLHEDLNKADNRKRYKEENNDHLDDFKAAEHAWQKHKQLNESIIVALFQGQFKSTVQCLTCHKKSRTFEAFMYLSLPLASTSKCTLQDCLRLFSKEEKLTDNNRFYCSHCRARRDSLKKIEIWKLPPVLLVHLKRFSYDGRWKQKLQTSVDFPLENLDLSQYVIGPKNNLKKYNLFSVSNHYGGLDGGHYTAYCKNAARQRWFKFDDHEVSDISVSSVKSSAAYILFYTSLGPRVTDVAT
For the molecule B7, the binding result in the test with LEMD2-APEX2-mCitrine and with CHMP4B-APEX2-mCitrine was “binds” throughout.

The values above are taken from article PMC12715200.
